This is an account of results in PMC9066100.

Amino acid sequences for entries named in this document (tags omitted).
UniProt P21333: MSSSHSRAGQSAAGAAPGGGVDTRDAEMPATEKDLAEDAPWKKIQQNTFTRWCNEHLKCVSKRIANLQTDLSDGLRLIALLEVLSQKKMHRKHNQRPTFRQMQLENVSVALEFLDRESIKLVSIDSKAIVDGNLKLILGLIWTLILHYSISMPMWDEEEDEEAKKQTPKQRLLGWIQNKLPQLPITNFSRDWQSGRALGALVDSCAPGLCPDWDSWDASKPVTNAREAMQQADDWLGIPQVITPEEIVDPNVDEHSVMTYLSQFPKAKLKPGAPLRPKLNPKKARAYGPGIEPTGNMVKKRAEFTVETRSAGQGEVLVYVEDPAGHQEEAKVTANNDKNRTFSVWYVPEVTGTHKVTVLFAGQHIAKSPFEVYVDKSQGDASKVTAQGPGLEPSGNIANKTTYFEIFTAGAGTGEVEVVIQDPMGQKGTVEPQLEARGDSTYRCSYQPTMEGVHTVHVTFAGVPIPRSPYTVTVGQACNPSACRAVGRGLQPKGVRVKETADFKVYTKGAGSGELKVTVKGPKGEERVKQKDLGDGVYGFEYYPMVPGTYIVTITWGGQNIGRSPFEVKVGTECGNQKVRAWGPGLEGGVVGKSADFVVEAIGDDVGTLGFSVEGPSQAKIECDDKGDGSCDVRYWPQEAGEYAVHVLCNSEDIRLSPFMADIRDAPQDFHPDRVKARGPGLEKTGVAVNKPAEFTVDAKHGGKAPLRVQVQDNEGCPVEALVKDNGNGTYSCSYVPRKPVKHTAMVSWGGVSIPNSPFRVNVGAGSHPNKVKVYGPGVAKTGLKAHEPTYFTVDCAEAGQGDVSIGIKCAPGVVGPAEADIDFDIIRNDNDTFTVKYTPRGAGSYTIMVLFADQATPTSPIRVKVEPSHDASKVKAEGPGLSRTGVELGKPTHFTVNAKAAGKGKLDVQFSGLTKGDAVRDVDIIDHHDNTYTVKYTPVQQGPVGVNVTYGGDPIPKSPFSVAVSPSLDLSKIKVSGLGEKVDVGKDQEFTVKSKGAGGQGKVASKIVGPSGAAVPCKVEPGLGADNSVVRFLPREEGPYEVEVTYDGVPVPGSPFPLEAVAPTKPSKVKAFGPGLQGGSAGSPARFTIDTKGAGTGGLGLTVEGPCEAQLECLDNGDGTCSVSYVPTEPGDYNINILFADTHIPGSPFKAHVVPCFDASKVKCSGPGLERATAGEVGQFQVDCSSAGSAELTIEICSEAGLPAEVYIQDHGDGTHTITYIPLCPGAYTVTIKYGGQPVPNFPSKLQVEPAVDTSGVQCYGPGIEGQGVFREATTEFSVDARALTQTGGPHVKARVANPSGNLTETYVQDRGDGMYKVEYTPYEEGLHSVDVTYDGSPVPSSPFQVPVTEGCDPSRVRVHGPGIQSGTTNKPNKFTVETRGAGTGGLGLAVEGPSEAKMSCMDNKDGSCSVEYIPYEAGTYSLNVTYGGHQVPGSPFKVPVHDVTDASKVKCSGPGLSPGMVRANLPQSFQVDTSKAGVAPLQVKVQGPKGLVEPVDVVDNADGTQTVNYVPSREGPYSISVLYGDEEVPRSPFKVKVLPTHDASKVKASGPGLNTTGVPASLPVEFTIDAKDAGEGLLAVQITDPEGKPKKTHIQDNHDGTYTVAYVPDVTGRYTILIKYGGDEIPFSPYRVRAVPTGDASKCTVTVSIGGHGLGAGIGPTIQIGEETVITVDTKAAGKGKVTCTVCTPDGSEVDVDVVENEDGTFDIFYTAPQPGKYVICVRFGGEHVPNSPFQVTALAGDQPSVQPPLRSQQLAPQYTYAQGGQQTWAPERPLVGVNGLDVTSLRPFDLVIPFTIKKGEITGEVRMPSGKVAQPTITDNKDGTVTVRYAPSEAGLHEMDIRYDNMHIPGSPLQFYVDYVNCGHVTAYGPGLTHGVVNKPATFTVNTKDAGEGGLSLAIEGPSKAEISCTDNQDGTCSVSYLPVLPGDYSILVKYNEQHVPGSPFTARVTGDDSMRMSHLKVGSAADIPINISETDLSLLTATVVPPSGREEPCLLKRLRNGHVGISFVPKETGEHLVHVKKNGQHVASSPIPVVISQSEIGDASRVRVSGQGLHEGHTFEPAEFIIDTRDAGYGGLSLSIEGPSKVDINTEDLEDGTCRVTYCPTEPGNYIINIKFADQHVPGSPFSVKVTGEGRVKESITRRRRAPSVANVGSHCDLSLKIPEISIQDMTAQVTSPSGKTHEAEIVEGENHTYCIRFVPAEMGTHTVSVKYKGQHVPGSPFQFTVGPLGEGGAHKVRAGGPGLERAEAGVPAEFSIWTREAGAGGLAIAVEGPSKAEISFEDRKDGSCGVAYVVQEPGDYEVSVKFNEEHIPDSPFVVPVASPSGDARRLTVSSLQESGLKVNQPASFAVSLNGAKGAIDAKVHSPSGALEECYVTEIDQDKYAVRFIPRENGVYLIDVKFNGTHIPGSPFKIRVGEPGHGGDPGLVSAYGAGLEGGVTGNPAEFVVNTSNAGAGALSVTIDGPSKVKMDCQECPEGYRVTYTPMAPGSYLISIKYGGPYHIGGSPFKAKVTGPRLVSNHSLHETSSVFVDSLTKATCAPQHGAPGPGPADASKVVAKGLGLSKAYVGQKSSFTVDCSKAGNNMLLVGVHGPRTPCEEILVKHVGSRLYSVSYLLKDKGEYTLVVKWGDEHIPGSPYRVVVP
UniProt Q96DX7: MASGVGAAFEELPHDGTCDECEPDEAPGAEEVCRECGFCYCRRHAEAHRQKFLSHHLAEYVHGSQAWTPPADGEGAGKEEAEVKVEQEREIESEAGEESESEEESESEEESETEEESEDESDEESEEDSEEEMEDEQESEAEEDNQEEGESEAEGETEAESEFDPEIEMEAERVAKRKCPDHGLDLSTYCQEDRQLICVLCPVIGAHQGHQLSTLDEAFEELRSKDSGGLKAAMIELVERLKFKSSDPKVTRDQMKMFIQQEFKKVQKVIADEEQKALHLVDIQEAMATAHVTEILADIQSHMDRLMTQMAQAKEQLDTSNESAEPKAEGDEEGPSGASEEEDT

These are yes or no findings as the source states them, for the method shown. Binding seen in cells or lysates may run through a third protein. Some results given as binding are weak or reduced against the parent protein; the word gives no strength.

The target of test [1] is filamin A (FLNA) (human (endogenous in A549/DDP)) (UniProt P21333). The experiment in a line: co-IP; A549/DDP cells overexpressing flag-tagged TRIM44 lysed with IP lysis buffer; immunoprecipitated with Flag antibody or FLNA antibody, rabbit IgG as negative control; bound proteins examined by Western blotting. For orientation: Immunoblotting shows a protein as a band on a membrane.

Test [2] has as its target Flag-TRIM44 (Tripartite motif-containing 44) (human) (UniProt Q96DX7). The test is described as above.

As to “Flag-TRIM44 (Tripartite motif-containing 44) (from UniProt Q96DX7 1-344)”, the binding entry in test [1] is “binds”.

On to “filamin A (FLNA) (from UniProt P21333 1-2647)”, for which the binding entry in test [2] is listed as “binds”.
